This is an account of results in the supplement of paper PMC5949888.

Most values lie at the floor of the assay. Slopes are relative: functional sequences can read slightly below zero.

The series has as its system Saccharomyces cerevisiae PS128 hsf1 delta, HSF1(1-493) fusion. Description: growth estimate (transactivation domain function in HSF1 fusion, heat-shock survival) (a.u. (slope of normalised read count over time)); higher = stronger growth at 37°C, i.e. more transactivation activity. The following applies: library: random library. The procedure:
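Random 60-nt DNA library encoding peptides of up to 20 aa, fused to the C-terminus of yeast HSF1 residues 1-493 (C-terminal TAD deleted) and expressed from the native HSF1 promoter on a CEN plasmid in hsf1-deleted S. cerevisiae PS128. Cells were selected at 37°C on -trp 5-FOA plates for 0, 2, 4, 6 and 8 days and amplicons were sequenced. Growth estimate is the slope of a robust linear fit of total-sum-normalised read counts (normalised to the first time point) over time, using at least 2 replicates. Sequences are classed functional (TAD activity) above a threshold of -0.13, set from stop-codon control sequences.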
For the substance MTIAIYED, the growth estimate is under -0.25.
Then LSGIRDVDAFARSPRV, with under -0.25; and LRGVCEAIIALCFTTSPGSA, with under -0.25; and VVPGRTLILRLSGSRAAAPR, with -0.208.
Then CTSFPSDARILVLDPDN, with under -0.25; and APVLRFSSEGAYIRRGAVTG, with under -0.25; and ISVV, with under -0.25.
Regarding PSVRLDISAIKTLPALHARP, the growth estimate is under -0.25.
In the case of GLW it was under -0.25.
EVSYLLNSLV: the growth estimate was under -0.25.
On to QWGGELAAGLDM, for which the growth estimate was under -0.25.
VRCGVRRLCAVLSSLQCMRL: the growth estimate was under -0.25.
Turning to YHEFVLLWDG, the growth estimate is -0.188.
DKQ: the growth estimate was under -0.25.
For the substance VGVSNWELLLPNESYIALDP, the growth estimate was under -0.25.
As for AQSSVITSDQKIGVREGQRG, the growth estimate is under -0.25.
Then SMSNNCQAKCATGW, with under -0.25; and CSIPWGVRGYVQPMDSGFDG, with 0.066.
In the case of SLDSGGWSQRLLQY it was under -0.25.
Then DPRAPFAIAVSRQRSTLCVV, with under -0.25.
Regarding HGRPRKLGNWVTRVVRLLLI, the growth estimate is under -0.25.
For the substance GKGGGASASPLHFRVKLRAA, the growth estimate is under -0.25.
Take CGTLVMNTATLLGNACGLTH: the growth estimate is under -0.25.
Then WEAGRVC, with under -0.25.
In the case of LKRRGDRLVC it was under -0.25; in that of LHVRALILVRGRCPFNYWPS, under -0.25.
Regarding GGHLRAISQVGPD, the growth estimate is under -0.25.
For the substance PLIILASKLQVQSVVPYVGQ, the growth estimate is -0.203.
Take RSIAIQCGRRVPRVLGMSAR: the growth estimate was under -0.25.
Regarding HDPAEHFLAPQRSCSDCTRN, the growth estimate is under -0.25.
In the case of AVRCSVSRAGNVRVRTFSTR it was under -0.25; in that of VSLWTRGFANASRLG, under -0.25; in that of DPG, under -0.25.
In the case of AIRGVLSKRVFSR it was under -0.251; in that of FVMGLVAPTDGGCVGFATCR, under -0.25; in that of INGSGLDVGNQHAYRPT, under -0.25.
In the case of FEANILVHQGRG it was under -0.25; in that of DRLISLIKLIRMD, under -0.25.
Consider RLLTSSSQDD, for which the growth estimate is under -0.25.
Then MTL, with under -0.25.
Regarding GQRLDGGVVRRF, the growth estimate is under -0.25.
In the case of GRAGTLRLVLLP it was under -0.25; in that of GLTVLRRMLSAQVVNYCDAV, under -0.25; in that of ETRRFRVITARGINYARALM, -0.246.
On to KPQVIVHPSALRHGLVRTNG, for which the growth estimate was under -0.25.
Regarding VFILRLSDIVSASTLTEYSS, the growth estimate was under -0.25.
LRHFISLNSTSARSSLSTRP: the growth estimate was under -0.25.
SRCEVLHRVNMLAAG: the growth estimate is under -0.25.
In the case of WAA it was under -0.25; in that of AIRSQFTNGQSRSRQFAELR, under -0.25.
For the substance KKPSCRTRTEGKSVRHGSPW, the growth estimate was under -0.25.
Then PAWGDIGYMGVFPKLGANTG, with under -0.25; and LGITVR, with under -0.25; and LVPVFARLQLKSLVLVVRPN, with under -0.25.
As to AGLTIAEGHGRPFLPAGVQ, the growth estimate was under -0.25.
Regarding SSGEAPRLRASPCGQCLKTD, the growth estimate was under -0.25.
Then CEILVGCPDY, with under -0.25; and SWLVGATTP, with under -0.25; and KVGGARCSHKQAP, with under -0.25.
For NAGEPYRAGLRTAGVVWFLS, the growth estimate is under -0.25.
As to GLHSAGSGFFFMAPLKLKRV, the growth estimate was under -0.25.
In the case of YIK, the growth estimate is under -0.25.
For the substance PFGE, the growth estimate was under -0.25.
As for PLDGE, the growth estimate is under -0.25.
In the case of CGKRWRCRTDNFRPCSSHKL it was under -0.25; in that of CRRSLQHTAQSITDRKCVAH, under -0.25.
In the case of TEWFRSSWVPINQSRLPVSL it was under -0.25; in that of PNASNVPQWSWELWYGTAHV, -0.196.
In the case of TTAQGSRSCHTVPRSRLWLE, the growth estimate was under -0.25.
Then SVGVATGAGVLVVEAWSVKG, with under -0.25.
For CVMSPLERHSQPDKSSQSAD, the growth estimate was under -0.25.
In the case of LKGHGPI it was under -0.25; in that of YPAEHEGLPPLTWRQRERAL, under -0.25.
In the case of APLVLGAWFACRDGTSQLGY it was under -0.25.
Regarding IALQCAKFRMYRGNFVATTS, the growth estimate is under -0.25.
Turning to KCTPTPQKRQVVST, the growth estimate was under -0.25.
As for TPRAYTEKDYGLEYAANHFV, the growth estimate is under -0.25.
Then LSRPTFSLHGFRLRRAVKSY, with under -0.25; and GADQNRGSLLKSGLQFSRIE, with under -0.25.
With QEV, the growth estimate was under -0.25.
As for LTIWKAPRSYFSAKQKSMKC, the growth estimate was under -0.25.
Then YEA, with under -0.25; and RRHYPETMRALLFRNLTR, with under -0.25.
For KDPASSYRLWYALDFFGRPP, the growth estimate is under -0.25.
In the case of WVPDSRI, the growth estimate was under -0.25.
Regarding PASKYTVVQQDCERVGGTQT, the growth estimate is under -0.25.
In the case of ALSASSRSERAHRVRLN it was under -0.25; in that of VFSSVVHTA, under -0.25; in that of SSTSVVRVAGQ, under -0.253.
For ITKTLQGITERIRVRTHWGL, the growth estimate is under -0.25.
Then YLSARKQR, with under -0.25; and LHRASLA, with under -0.25; and LGCTRGDLDRRLAPPGIPWA, with under -0.25.
In the case of FFGNAPSARLY, the growth estimate was under -0.25.
In the case of LLSVHHFISAL it was under -0.25; in that of AKDVRIGLRVHCIKGAIQGK, under -0.25; in that of HSGGRK, under -0.25.
In the case of GSPLVQIDVGRGVSESP it was under -0.25; in that of PDVLCTDPAHQALYTVKYSR, under -0.25; in that of PSPHGHGAKVNVRHNACLSP, under -0.25.
In the case of GIPARIPGFRARVAGMRHHV it was under -0.25; in that of QYTRAAQFCARYSS, under -0.25; in that of RHFRVL, under -0.25.
As for VPTVSRASGLYIFRRDLPGC, the growth estimate is under -0.25.
For FWEALGKGRRLTYCTSGPRQ, the growth estimate is under -0.25.
In the case of ANRFES it was under -0.25; in that of LTSARTTVTLRIKKRRDSQS, under -0.25; in that of VVSQGAWDRQPFICT, under -0.25.
In the case of PSTPPFARTMFHRNYRD, the growth estimate is under -0.25.
Take KEAFTFAHSHKPLLRFGMVR: the growth estimate is under -0.25.
Take GQCVSAVLYGGYVPAGLPQG: the growth estimate was under -0.25.
In the case of IAWVGGVRLWHGA it was under -0.25; in that of EYASDQVTGR, under -0.25.
